Results reported in article PMC3078593.
Results are given in words; binding and its absence hold for the method and conditions named. In cells and extracts the contact can be indirect. Some entries that bind do so weakly or less than the wild type.

Chains of the proteins cited; added tags and fusions are not shown. Lines headed by an entry give the natural chain unless they say otherwise; changes in a name come on top. A line that says so, or that is headed by a name, gives the form on record, which may keep a tag or linker.
UniProt P38398: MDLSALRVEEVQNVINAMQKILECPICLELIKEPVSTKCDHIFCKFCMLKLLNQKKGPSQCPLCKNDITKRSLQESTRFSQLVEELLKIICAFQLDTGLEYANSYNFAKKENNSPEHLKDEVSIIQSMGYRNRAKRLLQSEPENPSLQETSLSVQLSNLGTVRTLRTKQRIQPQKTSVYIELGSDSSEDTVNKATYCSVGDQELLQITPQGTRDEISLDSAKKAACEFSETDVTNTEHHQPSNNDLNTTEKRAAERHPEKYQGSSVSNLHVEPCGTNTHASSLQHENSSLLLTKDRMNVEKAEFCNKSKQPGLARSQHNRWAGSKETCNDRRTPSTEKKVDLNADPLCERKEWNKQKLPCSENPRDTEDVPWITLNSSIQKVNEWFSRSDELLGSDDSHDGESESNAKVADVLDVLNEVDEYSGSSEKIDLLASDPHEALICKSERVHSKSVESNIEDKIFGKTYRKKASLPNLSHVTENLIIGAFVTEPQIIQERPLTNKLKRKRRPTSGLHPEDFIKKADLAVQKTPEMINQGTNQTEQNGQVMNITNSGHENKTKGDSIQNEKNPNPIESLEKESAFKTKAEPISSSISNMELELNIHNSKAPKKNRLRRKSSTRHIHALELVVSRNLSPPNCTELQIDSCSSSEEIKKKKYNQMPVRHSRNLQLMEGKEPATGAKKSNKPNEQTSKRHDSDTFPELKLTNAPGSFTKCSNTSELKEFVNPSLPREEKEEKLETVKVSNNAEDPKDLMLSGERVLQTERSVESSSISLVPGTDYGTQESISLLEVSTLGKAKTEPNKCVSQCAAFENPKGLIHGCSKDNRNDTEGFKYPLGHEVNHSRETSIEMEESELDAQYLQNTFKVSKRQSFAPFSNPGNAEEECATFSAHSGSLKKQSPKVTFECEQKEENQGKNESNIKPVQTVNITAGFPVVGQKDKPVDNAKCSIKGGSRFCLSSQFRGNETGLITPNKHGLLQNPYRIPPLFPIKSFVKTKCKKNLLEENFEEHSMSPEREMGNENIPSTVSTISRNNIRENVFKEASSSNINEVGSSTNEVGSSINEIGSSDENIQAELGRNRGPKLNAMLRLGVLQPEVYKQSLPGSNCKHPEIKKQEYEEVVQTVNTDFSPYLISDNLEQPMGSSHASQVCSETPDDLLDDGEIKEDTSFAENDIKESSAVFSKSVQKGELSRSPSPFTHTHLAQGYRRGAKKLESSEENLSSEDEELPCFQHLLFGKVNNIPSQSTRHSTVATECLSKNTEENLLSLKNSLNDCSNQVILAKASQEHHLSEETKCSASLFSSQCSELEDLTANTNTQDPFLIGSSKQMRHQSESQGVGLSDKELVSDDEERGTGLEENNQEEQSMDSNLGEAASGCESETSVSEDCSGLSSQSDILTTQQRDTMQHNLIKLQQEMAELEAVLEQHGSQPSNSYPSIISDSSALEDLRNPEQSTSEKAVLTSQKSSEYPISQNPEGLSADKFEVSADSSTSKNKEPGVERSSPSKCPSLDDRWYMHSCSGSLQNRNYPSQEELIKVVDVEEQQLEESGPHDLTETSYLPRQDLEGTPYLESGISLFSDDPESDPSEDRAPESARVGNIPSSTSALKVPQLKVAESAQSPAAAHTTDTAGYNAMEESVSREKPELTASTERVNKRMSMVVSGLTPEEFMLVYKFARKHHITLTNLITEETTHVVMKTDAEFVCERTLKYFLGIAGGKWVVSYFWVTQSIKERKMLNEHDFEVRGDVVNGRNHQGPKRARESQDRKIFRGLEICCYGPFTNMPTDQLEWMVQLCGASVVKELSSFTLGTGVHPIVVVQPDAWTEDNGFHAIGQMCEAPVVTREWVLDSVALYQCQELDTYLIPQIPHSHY
UniProt P78347: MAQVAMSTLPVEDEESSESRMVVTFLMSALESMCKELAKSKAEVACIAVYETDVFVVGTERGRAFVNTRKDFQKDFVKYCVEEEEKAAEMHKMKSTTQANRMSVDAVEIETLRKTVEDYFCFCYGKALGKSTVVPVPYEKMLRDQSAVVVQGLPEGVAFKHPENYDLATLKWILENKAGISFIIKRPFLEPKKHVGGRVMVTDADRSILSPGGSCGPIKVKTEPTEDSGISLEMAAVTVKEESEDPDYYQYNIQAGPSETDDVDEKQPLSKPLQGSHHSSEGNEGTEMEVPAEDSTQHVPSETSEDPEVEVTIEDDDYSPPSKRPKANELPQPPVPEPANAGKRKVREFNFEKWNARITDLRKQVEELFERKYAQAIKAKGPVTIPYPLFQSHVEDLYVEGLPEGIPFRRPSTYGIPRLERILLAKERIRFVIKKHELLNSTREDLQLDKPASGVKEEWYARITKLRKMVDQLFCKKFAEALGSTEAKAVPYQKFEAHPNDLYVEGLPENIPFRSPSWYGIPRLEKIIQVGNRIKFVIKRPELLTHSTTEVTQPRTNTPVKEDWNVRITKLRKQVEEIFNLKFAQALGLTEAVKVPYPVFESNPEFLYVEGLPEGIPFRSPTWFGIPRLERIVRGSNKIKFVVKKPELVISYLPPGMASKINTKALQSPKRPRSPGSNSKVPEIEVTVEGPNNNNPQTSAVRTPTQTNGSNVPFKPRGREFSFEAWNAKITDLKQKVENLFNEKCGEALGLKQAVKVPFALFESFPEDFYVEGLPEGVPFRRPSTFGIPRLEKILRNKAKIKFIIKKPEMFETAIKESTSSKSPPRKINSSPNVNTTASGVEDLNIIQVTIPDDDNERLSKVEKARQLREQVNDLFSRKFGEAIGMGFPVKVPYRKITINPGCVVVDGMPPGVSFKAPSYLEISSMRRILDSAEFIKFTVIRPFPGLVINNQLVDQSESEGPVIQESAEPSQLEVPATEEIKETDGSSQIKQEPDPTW
GST-tagged TFII-I (wild type) (P78347-2, form named): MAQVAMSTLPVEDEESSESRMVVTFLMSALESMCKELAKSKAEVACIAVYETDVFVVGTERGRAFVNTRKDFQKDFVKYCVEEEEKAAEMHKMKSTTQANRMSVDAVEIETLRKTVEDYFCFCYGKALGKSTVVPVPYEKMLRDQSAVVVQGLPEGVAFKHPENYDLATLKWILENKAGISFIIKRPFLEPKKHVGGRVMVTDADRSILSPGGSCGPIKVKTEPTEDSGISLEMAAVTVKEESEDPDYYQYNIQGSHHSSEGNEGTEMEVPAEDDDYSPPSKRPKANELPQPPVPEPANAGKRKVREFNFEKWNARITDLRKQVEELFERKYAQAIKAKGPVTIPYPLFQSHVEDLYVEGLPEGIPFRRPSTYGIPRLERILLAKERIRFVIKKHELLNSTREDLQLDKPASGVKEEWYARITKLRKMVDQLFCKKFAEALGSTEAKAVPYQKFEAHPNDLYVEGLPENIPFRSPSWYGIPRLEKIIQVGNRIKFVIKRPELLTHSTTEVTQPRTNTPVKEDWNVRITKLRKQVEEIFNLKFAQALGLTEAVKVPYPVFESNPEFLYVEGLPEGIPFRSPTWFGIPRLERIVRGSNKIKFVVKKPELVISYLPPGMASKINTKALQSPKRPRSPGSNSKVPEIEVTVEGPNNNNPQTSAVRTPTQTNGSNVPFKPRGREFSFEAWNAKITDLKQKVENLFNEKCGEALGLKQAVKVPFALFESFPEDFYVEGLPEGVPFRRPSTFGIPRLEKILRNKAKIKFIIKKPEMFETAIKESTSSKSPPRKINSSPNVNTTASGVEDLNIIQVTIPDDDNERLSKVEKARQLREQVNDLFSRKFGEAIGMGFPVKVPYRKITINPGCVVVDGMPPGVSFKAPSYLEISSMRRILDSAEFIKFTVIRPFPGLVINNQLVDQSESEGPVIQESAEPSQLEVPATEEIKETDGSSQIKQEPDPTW

Columns and labels:
[1] = target: BRCA1 (endogenous, HeLa cells) (human (endogenous in HeLa)) (UniProt P38398); experiment: co-IP; whole-cell extracts of HeLa cells; IP with anti-BRCA1 antibodies (epitope at the carboxyl-terminus of BRCA1) and protein G sepharose, blot with anti-TFII-I antibodies; reciprocal IP also performed
[2] = target: Flag-tagged BRCA1 (UniProt P38398); experiment: condition: only cytoplasmic fraction of the COS7 cells; co-IP; cytoplasmic fraction of transfected COS7 cells; IP of BRCA1, blot for TFII-I
[3] = target: Flag-tagged BRCA1 (UniProt P38398); experiment: co-IP; nuclear extracts of COS7 cells transfected with Flag-tagged BRCA1 and GST-tagged TFII-I; IP with anti-FLAG M2 agarose, blot with anti-GST antibodies

Row | binding [1] | binding [2] | binding [3] | Substance
1 | binds |  |  | TFII-I (endogenous, HeLa cells) (from UniProt P78347 1-998)
2 |  | no binding | binds | GST-tagged TFII-I (wild type) (from UniProt P78347-2 1-957)
